Values from PubChem BioAssay AID504764 (Drosophila RNAi Screening Center, 2011).

Test: 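Genes whose knock-down alters Notch-dependent transcription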 (primary screen)
Cells: Drosophila Kc167 cells
Knock-down reagent: long dsRNA against Drosophila genes
Timing: about 5 days (4 days dsRNA, then 24 h after transfection)
Conditions: transfection of constitutively active membrane-tethered Notch lacking the extracellular domain, read 24 h later
Measured: 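Firefly luciferase from an E(spl)m3 reporter with active Notch, plus control-promoter and uninduced reporter wells for normalisation; unnormalised counts, duplicate wells a and b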
Direction: induced reporter light, run 1, well a and induced reporter light, run 1, well b: higher = more light from the Notch target reporter with active Notch; control promoter light, run 1, well a and control promoter light, run 1, well b: higher = more light from the viral control promoter (cell number, transfection, viability); uninduced reporter light, run 1, well a: higher = more light from the Notch target reporter without active Notch
Call rule: 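Hit if the duplicate-averaged log2 ratio of induced to control-promoter light gives a plate-wise z beyond ±2, or induced to uninduced beyond ±1.8; weak-control or discordant-duplicate wells dropped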
Meaning of the calls: active = modifier hit (raised or lowered Notch signal); inactive = not a hit
In all, the deposit lists about 22,000 reagents; below is an unselected part of those with a known target gene and a result. Over the whole deposit, 403 (1.9%) got an active call. 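Unnormalised raw counts per well; ratio z-scores behind the hit calls and whether each hit raises or lowers signal are not deposited.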 Not stated in the record: the amount of reagent.

gene	DRSC id	induced reporter light, run 1, well a	induced reporter light, run 1, well b	control promoter light, run 1, well a	control promoter light, run 1, well b	uninduced reporter light, run 1, well a	Call
Cyp1	DRSC20234	2.05e5	1.87e5	3.13e5	2.57e5	11725	inactive
CG30065	DRSC05420	1.79e5	2.01e5	2.77e5	2.42e5	18295	inactive
fest	DRSC07349	67715	75755	66235	57935	6900	inactive
SPE	DRSC15135	1.63e5	1.91e5	2.48e5	2.22e5	17035	inactive
CG12715	DRSC19492	1.09e5	99640	2.17e5	2.51e5	10635	inactive
CycC	DRSC16619	1.00e5	90195	81940	80845	9505	inactive
TpnC73F	DRSC11307	1.61e5	1.48e5	2.42e5	1.82e5	6325	inactive
unk	DRSC17093	2.09e5	1.86e5	2.16e5	2.78e5	16960	inactive
CR32028 (retired record)	DRSC22959						inactive
hrg	DRSC07502	25320	28515	29055	28745	2830	inactive
Gr97a	DRSC13802	2.08e5	1.87e5	1.98e5	2.10e5	18305	inactive
CG30076	DRSC05494	1.82e5	2.26e5	2.62e5	2.45e5	19240	inactive
Antdh	DRSC20307	1.24e5	1.55e5	2.80e5	2.58e5	8290	inactive
Hinfp	DRSC18484	1.13e5	95535	1.52e5	1.76e5	8305	inactive
MFS12	DRSC07268	1.93e5	1.59e5	1.64e5	1.66e5	15080	inactive
CG6180	DRSC02937	2.40e5	1.93e5	1.97e5	2.01e5	15130	inactive
CG5262	DRSC11773	1.14e5	1.52e5	72585	70280	10025	inactive
mthl1	DRSC19905	71600	60230	61730	51790	6780	inactive
Npc2e	DRSC15522	86690	84935	1.01e5	70825	7080	inactive
Rab9Fb	DRSC19854	1.25e5	1.06e5	1.85e5	1.70e5	8145	inactive
Cyp4p3	DRSC07374	2.43e5	1.96e5	3.09e5	2.35e5	17628	inactive
oaf	DRSC00831	1.14e5	1.25e5	99800	48355	8315	inactive
Spp	DRSC00328	1.92e5	2.42e5	2.00e5	2.05e5	18675	inactive
Ir60e	DRSC04227	2.10e5	1.66e5	1.95e5	1.81e5	14815	inactive
CG7914	DRSC20068	91325	86815	95035	1.02e5	11360	inactive
AGO2	DRSC09999	1.38e5	1.84e5	2.25e5	1.83e5	12360	inactive
AGO2	DRSC10847	1.19e5	1.27e5	87460	1.09e5	12225	inactive
CG13075	DRSC09958	1.41e5	1.32e5	1.65e5	1.70e5	9185	inactive
CG31826	DRSC03357	1.38e5	1.67e5	1.66e5	1.64e5	12475	inactive
CG14471 (retired record)	DRSC04865	1.73e5	1.45e5	1.48e5	1.56e5	12020	inactive
CG46298	DRSC06222	1.87e5	1.84e5	2.27e5	1.98e5	13745	inactive
CG9522	DRSC20197	86380	65640	71320	52005	10835	inactive
l(3)72Dr	DRSC10478	2.02e5	2.09e5	2.55e5	2.20e5	10535	inactive
phtf	DRSC05023	2.53e5	2.61e5	2.42e5	2.71e5	16960	inactive
CG46441	DRSC15561	1.74e5	1.61e5	2.58e5	2.86e5	14670	inactive
Trmt61	DRSC14888	1.29e5	1.24e5	1.84e5	1.79e5	11185	inactive
Cals	DRSC17196	1.71e5	1.95e5	2.50e5	2.61e5	14600	inactive
Ir75c	DRSC10190	2.22e5	1.56e5	2.46e5	2.72e5	9565	inactive
CG9117	DRSC03141	59725	56840	63620	58620	3235	inactive
Dscam4	DRSC08911	1.51e5	1.30e5	1.53e5	1.61e5	9905	inactive
Dscam4	DRSC08913	1.88e5	1.96e5	2.00e5	2.22e5	13700	inactive
Dscam4	DRSC10031	1.53e5	1.23e5	1.76e5	1.21e5	6010	inactive
Dscam4	DRSC10329	1.53e5	1.68e5	2.51e5	1.53e5	5715	inactive
Dscam4	DRSC10765	1.89e5	2.04e5	2.65e5	1.60e5	9765	inactive
CG33689	DRSC09424	1.50e5	1.37e5	2.37e5	2.75e5	15160	inactive
CG10151	DRSC05974	73265	66085	52590	61245	7755	inactive
Mt2	DRSC03374	1.97e5	2.11e5	1.87e5	1.96e5	16578	inactive
CG8170	DRSC07087	1.66e5	1.48e5	2.10e5	1.86e5	13970	inactive
CG13193	DRSC06318	95850	96870	1.18e5	97405	9225	inactive
CG11656	DRSC14338	1.33e5	1.21e5	89355	87390	10482	inactive

Part of the list above, limited to “uninduced reporter light, run 1, well a”.
Dscam4 [DRSC10329]	5715
Dscam4 [DRSC10765]	9765
CG33689 [DRSC09424]	15160
CG10151 [DRSC05974]	7755
Mt2 [DRSC03374]	16578
CG8170 [DRSC07087]	13970
CG13193 [DRSC06318]	9225
